Results on three substances are retold here after US10076576B2 (priority 2012, dated 2018).

The series in a line: general procedure: Fmoc solid-phase peptide synthesis; Fmoc-Leu-Wang resin (also Fmoc-Gly-Wang, Fmoc-Phe-Wang); 2-(6-chloro-1H-benzotriazole-1-yl)-1,1,3,3-tetramethyluronium hexafluorophosphat. Conditions: whole synthesis, 214 nm, scale of the general procedure 5 g resin.

* marks the point of attachment. Fmoc = O=C(OCC1c2ccccc2-c2ccccc21)*

Fmoc-ALAL-OH: the “crude HPLC purity” value turned out to be 90%.

Fmoc-ALAF-OH: the “crude HPLC purity” value is 90%.

In the case of Fmoc-ALPF-OH, the “crude HPLC purity” value is 98%.
